Source: CN101357942A
These are yes or no findings as the source states them, for the method shown. Some entries that bind do so weakly or less than the wild type.

Key:
[1] = target: 天然Stx2 (natural Shiga toxin II of enterohaemorrhagic E. coli O157:H7) (肠出血性大肠杆菌(EHEC) O157:H7) (UniProt P09385); test: Western blot on natural Stx2
[2] = target: 天然Stx2 (natural Shiga toxin II of enterohaemorrhagic E. coli O157:H7) (肠出血性大肠杆菌(EHEC) O157:H7) (UniProt P09385); test: indirect ELISA on coated natural Stx2 (2 ug/ml), antibody 0.2-12.8 ug/ml

B1: 1F2单克隆抗体 (monoclonal antibody 1F2, from hybridoma CCTCC C200822) (antibody, V domains shown)
VH: SGGGLVQPGGSLKLSCAASGFTFSVYGMSWVRQTPDKRLELVATINNNGGSTYYPDSVKGRFTISRDNAKNTLYLQMSSLKSEDTAMYYCASIPLFGNYWGQGTSVTVSS
VL: MTQTPLSLPVSLGDQASISCRSSQSIVHSNGNTYLEWYLQKPGQSPKFLIYKVSRFSGVPDRFSGSGSGTDFTLKISRVEAEDLGVYYCFQGSHVPWTFGGGTKLEIKR
binding [1]: binds | binding [2]: binds
